Assay results published in doi:10.1101/2022.05.12.491601.
These are yes or no findings as the source states them, for the method shown. Binding seen in cells or lysates may run through a third protein. Some entries that bind do so weakly or less than the wild type.

T1: P2X4 receptor (mouse (endogenous in BMDM)) (UniProt Q9JJX6)
T1 sequence: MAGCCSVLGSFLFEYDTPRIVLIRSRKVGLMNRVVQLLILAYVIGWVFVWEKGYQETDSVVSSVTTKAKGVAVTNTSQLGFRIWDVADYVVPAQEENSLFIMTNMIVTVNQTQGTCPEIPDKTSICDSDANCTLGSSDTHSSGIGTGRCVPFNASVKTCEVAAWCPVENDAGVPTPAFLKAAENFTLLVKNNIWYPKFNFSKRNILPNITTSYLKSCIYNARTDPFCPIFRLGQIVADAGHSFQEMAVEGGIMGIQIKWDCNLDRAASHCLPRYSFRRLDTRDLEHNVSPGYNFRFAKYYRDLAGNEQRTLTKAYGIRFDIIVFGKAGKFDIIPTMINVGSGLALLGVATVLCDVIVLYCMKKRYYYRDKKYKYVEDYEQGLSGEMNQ

T2: ApoE (mouse (endogenous in BMDM)) (UniProt P08226)
T2 sequence: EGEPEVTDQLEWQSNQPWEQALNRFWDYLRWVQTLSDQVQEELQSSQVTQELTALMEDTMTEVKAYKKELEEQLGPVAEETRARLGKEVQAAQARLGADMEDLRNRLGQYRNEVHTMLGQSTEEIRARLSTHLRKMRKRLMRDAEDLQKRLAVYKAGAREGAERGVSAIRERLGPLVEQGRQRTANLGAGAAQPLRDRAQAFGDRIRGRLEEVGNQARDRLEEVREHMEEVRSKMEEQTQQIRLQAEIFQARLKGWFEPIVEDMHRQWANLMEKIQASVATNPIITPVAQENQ

B1: ApoE (protein, UniProt P08226 19-311)
chain: EGEPEVTDQLEWQSNQPWEQALNRFWDYLRWVQTLSDQVQEELQSSQVTQELTALMEDTMTEVKAYKKELEEQLGPVAEETRARLGKEVQAAQARLGADMEDLRNRLGQYRNEVHTMLGQSTEEIRARLSTHLRKMRKRLMRDAEDLQKRLAVYKAGAREGAERGVSAIRERLGPLVEQGRQRTANLGAGAAQPLRDRAQAFGDRIRGRLEEVGNQARDRLEEVREHMEEVRSKMEEQTQQIRLQAEIFQARLKGWFEPIVEDMHRQWANLMEKIQASVATNPIITPVAQENQ
B2: P2X4 receptor (receptor, UniProt Q9JJX6 1-388)
chain: MAGCCSVLGSFLFEYDTPRIVLIRSRKVGLMNRVVQLLILAYVIGWVFVWEKGYQETDSVVSSVTTKAKGVAVTNTSQLGFRIWDVADYVVPAQEENSLFIMTNMIVTVNQTQGTCPEIPDKTSICDSDANCTLGSSDTHSSGIGTGRCVPFNASVKTCEVAAWCPVENDAGVPTPAFLKAAENFTLLVKNNIWYPKFNFSKRNILPNITTSYLKSCIYNARTDPFCPIFRLGQIVADAGHSFQEMAVEGGIMGIQIKWDCNLDRAASHCLPRYSFRRLDTRDLEHNVSPGYNFRFAKYYRDLAGNEQRTLTKAYGIRFDIIVFGKAGKFDIIPTMINVGSGLALLGVATVLCDVIVLYCMKKRYYYRDKKYKYVEDYEQGLSGEMNQ

Columns and labels:
[1] = biological target: T1, P2X4 receptor (mouse (endogenous in BMDM)); assay: co-IP
[2] = biological target: T2, ApoE (mouse (endogenous in BMDM)); assay: co-IP

Binder | binding [1] | binding [2]
B1 | binds | 
B2 |  | binds
